PubChem BioAssay AID493246, Drosophila RNAi Screening Center – 2011
Test: 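Identify essential fly genes by loss of cell viability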 (primary screen). System: Drosophila Kc and S2R+ cells. Reagents: long dsRNA against Drosophila genes. Measurement: 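Cell number per well after knock-down, printed as raw plate values; calls were based on per-plate z-scores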. Reading the numbers: Kc cell number and S2R+ cell number: higher = more cells remaining. Active means: 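Counted as a hit if cell number falls by a z-score of at least 3 within its plate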.
In all, the deposit lists about 21,000 reagents; shown is a random part of those with a known target gene and a result. In the full data, 429 (2%) were called active. 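Values are raw and not normalised between plates; calls rest on per-plate z-scores that were not deposited.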 A plus sign joins genes that one reagent is predicted to hit. Not given: the amount of reagent, the time to read-out.

What is on record for CG10638 [DRSC09762]?
Kc cell number, rep 1: 1.79e6; Kc cell number, rep 2: 1.76e6; S2R+ cell number, rep 1: 1.40e6; S2R+ cell number, rep 2: 1.57e6; Outcome: inactive

What is on record for Obp56h [DRSC06433]?
Kc cell number, rep 1: 1.59e6; Kc cell number, rep 2: 1.64e6; S2R+ cell number, rep 1: 1.07e6; S2R+ cell number, rep 2: 1.20e6; Outcome: inactive

How did the screen score lama [DRSC11361]?
Kc cell number, rep 1: 1.16e6; Kc cell number, rep 2: 1.25e6; S2R+ cell number, rep 1: 1.39e6; S2R+ cell number, rep 2: 1.38e6; Outcome: inactive

For CG12923 [DRSC06237], what does the deposit list?
Kc cell number, rep 1: 1.51e6; Kc cell number, rep 2: 1.47e6; S2R+ cell number, rep 1: 1.24e6; S2R+ cell number, rep 2: 1.35e6; Outcome: inactive

For GluRIIC [DRSC00642], what does the deposit list?
Kc cell number, rep 1: 1.31e6; Kc cell number, rep 2: 1.28e6; S2R+ cell number, rep 1: 8.82e5; S2R+ cell number, rep 2: 1.03e6; Outcome: inactive

What did the screen give for CG13144 [DRSC02241]?
Kc cell number, rep 1: 1.64e6; Kc cell number, rep 2: 1.61e6; S2R+ cell number, rep 1: 1.23e6; S2R+ cell number, rep 2: 1.43e6; Outcome: inactive

Which result is listed for Coq7 + shf [DRSC18448]?
Kc cell number, rep 1: 1.58e6; Kc cell number, rep 2: 1.51e6; S2R+ cell number, rep 1: 1.10e6; S2R+ cell number, rep 2: 1.18e6; Outcome: inactive

What is on record for mthl1 [DRSC19905]?
Kc cell number, rep 1: 1.51e6; Kc cell number, rep 2: 1.51e6; S2R+ cell number, rep 1: 1.07e6; S2R+ cell number, rep 2: 1.11e6; Outcome: inactive

How did the screen score TpnC41C [DRSC04916]?
Kc cell number, rep 1: 1.56e6; Kc cell number, rep 2: 1.63e6; S2R+ cell number, rep 1: 1.24e6; S2R+ cell number, rep 2: 1.31e6; Outcome: inactive

What did the screen give for CG18636 [DRSC02685]?
Kc cell number, rep 1: 1.46e6; Kc cell number, rep 2: 1.58e6; S2R+ cell number, rep 1: 1.25e6; S2R+ cell number, rep 2: 1.36e6; Outcome: inactive

For CG15213 [DRSC10213], how do the results read?
Kc cell number, rep 1: 1.22e6; Kc cell number, rep 2: 1.30e6; S2R+ cell number, rep 1: 1.02e6; S2R+ cell number, rep 2: 1.08e6; Outcome: inactive

What is on record for CG13955 [DRSC06443]?
Kc cell number, rep 1: 1.79e6; Kc cell number, rep 2: 1.96e6; S2R+ cell number, rep 1: 1.31e6; S2R+ cell number, rep 2: 1.47e6; Outcome: inactive

Part of the list above in another layout.
{"Gene":"CG10638","DRSC id":"DRSC09762","Kc cell number, rep 1":1.79e6,"Kc cell number, rep 2":1.76e6,"S2R+ cell number, rep 1":1.40e6,"S2R+ cell number, rep 2":1.57e6,"Outcome":"inactive"}
{"Gene":"Obp56h","DRSC id":"DRSC06433","Kc cell number, rep 1":1.59e6,"Kc cell number, rep 2":1.64e6,"S2R+ cell number, rep 1":1.07e6,"S2R+ cell number, rep 2":1.20e6,"Outcome":"inactive"}
